Measurements taken from PubChem BioAssay AID1671190 (National Center for Advancing Translational Sciences (NCATS), 2021).
Among all 580,000 compounds or so, about 6,100 (1.1%) were called active. This list was built around the results that the source calls inconclusive (neither active nor inactive); the mix of calls is not that of the screen. The call rests on the fitted dose curve; in most records, active means well fitted inhibition curve with a large enough effect; inconclusive means small, poorly fitted or top-dose-only effect, or another doubt; inactive means no such curve, though single readings can be large or run the other way. Potencies of inconclusive entries are doubtful fits and often do not repeat.

Chains of the proteins cited; added tags and fusions are not shown.
UniProt P18054, whole entry, looked up: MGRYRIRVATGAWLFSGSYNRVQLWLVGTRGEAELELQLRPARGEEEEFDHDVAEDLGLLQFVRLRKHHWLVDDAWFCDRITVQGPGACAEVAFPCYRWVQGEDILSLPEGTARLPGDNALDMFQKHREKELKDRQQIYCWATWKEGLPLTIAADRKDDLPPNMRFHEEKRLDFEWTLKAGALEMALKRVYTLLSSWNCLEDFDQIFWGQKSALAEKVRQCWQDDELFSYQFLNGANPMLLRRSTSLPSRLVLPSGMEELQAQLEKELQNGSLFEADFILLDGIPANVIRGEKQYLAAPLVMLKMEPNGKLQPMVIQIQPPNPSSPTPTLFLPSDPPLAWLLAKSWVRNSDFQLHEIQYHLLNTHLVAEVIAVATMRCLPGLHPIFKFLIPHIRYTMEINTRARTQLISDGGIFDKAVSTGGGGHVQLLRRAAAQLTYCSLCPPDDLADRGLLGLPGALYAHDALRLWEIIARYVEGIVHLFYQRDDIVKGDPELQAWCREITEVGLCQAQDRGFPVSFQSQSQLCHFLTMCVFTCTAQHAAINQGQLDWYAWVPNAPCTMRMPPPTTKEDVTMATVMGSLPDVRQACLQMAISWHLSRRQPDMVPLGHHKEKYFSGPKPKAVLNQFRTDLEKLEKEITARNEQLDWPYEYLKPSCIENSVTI

target: Polyunsaturated fatty acid lipoxygenase ALOX12 (Homo sapiens) (UniProt P18054); experiment: Primary qHTS assay for inhibitors of human arachidonate 12S-lipoxygenase (ALOX12): Round 2; details: purified 12hLO, xylenol orange hydroperoxide absorbance; activity change, negative = inhibition: at 108 µM (top of the series) unless noted
Summary of the method: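 Hydroperoxide product was detected by ferrous iron/xylenol orange as the 573 to 405 nm absorbance ratio. Arachidonic acid at 40 uM (final) was turned over for 30 min at room temperature by 150 nM human 12hLO, pH 7.0 Hepes buffer, after 15 min compound preincubation.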
On the % scale 0 is the no-effect control and ±100 the full control effect; potency means the concentration at half of the fitted maximal effect.

| SMILES | Potency | activity change, negative = inhibition |
| --- | --- | --- |
| Cc1sc2nc(SCC(=O)N3CCOCC3)[nH]c(=O)c2c1-c1ccccc1 | active: 31.6 µM |  |
| CCNC(=O)Cn1nc(C)c2c(C(=O)OC)cc(C3CC3)nc21 | inactive |  |
| CCOC(=O)N1CCN(C(=O)CCn2c(=S)[nH]c3ccsc3c2=O)CC1 | inconclusive: 0.501 µM [inhibitor, full curve, poor fit] |  |
| CC(C)(C)OC(=O)N1CCC(c2c(C(=O)NCCN3CCCC3)cnn2-c2ccc(Cl)cc2)CC1 | inactive |  |
| C[C@@H]1CN([C@H](C)CO)S(=O)(=O)c2ccc(-c3cccc(C(=O)N(C)C)c3)cc2O[C@H]1CN(C)C(=O)Nc1ccc(F)cc1 | inconclusive: 31.6 µM [inhibitor, single point] |  |
| CC(C)OCCCN(C)C1CCN(S(=O)(=O)c2csc(C(N)=O)c2)CC1 |  | inconclusive: -32.5% [inhibitor] |
| CC1=C(SCCC#N)S/C(=C2\SC(C)=C(SCCC#N)S2)S1 | inconclusive: 2 µM [inhibitor, full curve, poor fit] |  |
| O=C(CCS(=O)(=O)c1ccccc1)Nc1cccc(-c2nc3ccccc3s2)c1 | inactive |  |
| Cc1cc(C(=O)Nc2ccc(Br)cn2)no1 | inactive |  |
| COc1ccccc1C1=NS(=O)(=O)N(C)C(C(=O)Nc2ccc(C(C)=O)cc2)=C1 | inconclusive: 100 µM [inhibitor, single point] |  |
| CCN1/C(=C2\C(=O)N(c3ccccc3)N=C2C)C=Cc2cc(C)ccc21 | inconclusive: 39.8 µM [inhibitor, partial curve] |  |
| COc1cc([C@@H]2C[C@H](NC(C)=O)C[C@H](Cc3ccccc3)O2)cc(OC)c1O | inconclusive: 25.1 µM [inhibitor, full curve, poor fit] |  |
| CC[C@@H]1C=C(C(=O)O)[C@H](c2ccc3c(c2)OCO3)N1S(=O)(=O)c1ccc(C)cc1 | inconclusive: 89.1 µM [inhibitor, partial curve, poor fit] |  |
| Fc1ccc(COc2ccc(C(=S)N3CCCC3)cc2)cc1 | inconclusive: 100 µM [inhibitor, single point] |  |
| O=C1NN(c2ccccc2)C(=O)/C1=C/c1ccc(-c2cccc(C(=O)O)c2)o1 | inconclusive: 44.7 µM [inhibitor, single point] |  |
| Cc1nc([C@@H]2CN(C(=O)CCCc3nc4ccccc4s3)C[C@H]2C(N)=O)n[nH]1 | inconclusive: 50.1 µM [inhibitor, single point] |  |
| CSc1cccc(NC(=O)Cn2nc(C)c3sc4ccccc4c3c2=O)c1 | inconclusive: 50.1 µM [inhibitor, partial curve, poor fit] |  |
| Cc1ccc2[nH]c3c(c2c1)CCCC3 | inconclusive: 44.7 µM [inhibitor, partial curve, poor fit] |  |
| CCOc1ncccc1C(=O)OCC(=O)NC1CCCCC1 | inactive |  |
| O=C(CC12CC3CC(CC(Br)(C3)C1)C2)NC1=NCCS1 | inconclusive: 112 µM [inhibitor, single point] |  |
| CCC1SC(C)C/C(=N\O)C1C (stereo unspecified) | inactive |  |
| NC(=O)CNC(=O)[C@@H]1CC2(CC(c3ccccc3)=NO2)CN1C(=O)c1ccc(Br)cc1 (stereo partly specified) | inactive |  |

20 entries from above, tab-delimited.
SMILES	Potency	activity change, negative = inhibition
CCNC(=O)Cn1nc(C)c2c(C(=O)OC)cc(C3CC3)nc21	inactive	
CCOC(=O)N1CCN(C(=O)CCn2c(=S)[nH]c3ccsc3c2=O)CC1	inconclusive: 0.501 µM [inhibitor, full curve, poor fit]	
CC(C)(C)OC(=O)N1CCC(c2c(C(=O)NCCN3CCCC3)cnn2-c2ccc(Cl)cc2)CC1	inactive	
C[C@@H]1CN([C@H](C)CO)S(=O)(=O)c2ccc(-c3cccc(C(=O)N(C)C)c3)cc2O[C@H]1CN(C)C(=O)Nc1ccc(F)cc1	inconclusive: 31.6 µM [inhibitor, single point]	
CC(C)OCCCN(C)C1CCN(S(=O)(=O)c2csc(C(N)=O)c2)CC1		inconclusive: -32.5% [inhibitor]
CC1=C(SCCC#N)S/C(=C2\SC(C)=C(SCCC#N)S2)S1	inconclusive: 2 µM [inhibitor, full curve, poor fit]	
O=C(CCS(=O)(=O)c1ccccc1)Nc1cccc(-c2nc3ccccc3s2)c1	inactive	
Cc1cc(C(=O)Nc2ccc(Br)cn2)no1	inactive	
COc1ccccc1C1=NS(=O)(=O)N(C)C(C(=O)Nc2ccc(C(C)=O)cc2)=C1	inconclusive: 100 µM [inhibitor, single point]	
CCN1/C(=C2\C(=O)N(c3ccccc3)N=C2C)C=Cc2cc(C)ccc21	inconclusive: 39.8 µM [inhibitor, partial curve]	
COc1cc([C@@H]2C[C@H](NC(C)=O)C[C@H](Cc3ccccc3)O2)cc(OC)c1O	inconclusive: 25.1 µM [inhibitor, full curve, poor fit]	
CC[C@@H]1C=C(C(=O)O)[C@H](c2ccc3c(c2)OCO3)N1S(=O)(=O)c1ccc(C)cc1	inconclusive: 89.1 µM [inhibitor, partial curve, poor fit]	
Fc1ccc(COc2ccc(C(=S)N3CCCC3)cc2)cc1	inconclusive: 100 µM [inhibitor, single point]	
O=C1NN(c2ccccc2)C(=O)/C1=C/c1ccc(-c2cccc(C(=O)O)c2)o1	inconclusive: 44.7 µM [inhibitor, single point]	
Cc1nc([C@@H]2CN(C(=O)CCCc3nc4ccccc4s3)C[C@H]2C(N)=O)n[nH]1	inconclusive: 50.1 µM [inhibitor, single point]	
CSc1cccc(NC(=O)Cn2nc(C)c3sc4ccccc4c3c2=O)c1	inconclusive: 50.1 µM [inhibitor, partial curve, poor fit]	
Cc1ccc2[nH]c3c(c2c1)CCCC3	inconclusive: 44.7 µM [inhibitor, partial curve, poor fit]	
CCOc1ncccc1C(=O)OCC(=O)NC1CCCCC1	inactive	
O=C(CC12CC3CC(CC(Br)(C3)C1)C2)NC1=NCCS1	inconclusive: 112 µM [inhibitor, single point]	
CCC1SC(C)C/C(=N\O)C1C (stereo unspecified)	inactive	

Additional records

| SMILES | Potency | activity change, negative = inhibition |
| --- | --- | --- |
| CCCCCCCCCCCCCCCC(=O)OC(CC(=O)O)C[N+](C)(C)C (stereo unspecified) | inconclusive: 35.5 µM [inhibitor, partial curve, poor fit] |  |
| O=C(C[C@@H]1CC[C@@H]2[C@H](COC[C@H](O)CN2Cc2cccc(C(F)(F)F)c2)O1)NCc1ccc(Cl)cc1 | inconclusive: 44.7 µM [inhibitor, partial curve, poor fit] |  |
| Cn1c(=O)[nH]c(=O)c2c1ncn2CC(O)c1ccccc1 (stereo unspecified) | inconclusive: 35.5 µM [inhibitor, partial curve, poor fit] |  |
| Cc1ccc(-c2noc([C@@H]3C[C@H](NC(=O)COc4ccccc4)CN3C)n2)cc1 | inconclusive: 56.2 µM [inhibitor, partial curve] |  |
| CC(C)C(NS(C)(=O)=O)c1nnc2n1CCN(Cc1ccnc3ccccc13)CC2 (stereo unspecified) | inconclusive: 89.1 µM [inhibitor, single point] |  |
| Cc1ccc(Sc2ccc(NC(=O)CCN3C(=O)NC4(CCCC4)C3=O)cc2)c(C)c1 | inconclusive: 100 µM [inhibitor, single point] |  |
| COCCc1noc([C@@H]2CN(Cc3cccc(OC)n3)C[C@H]2CO)n1 | inactive |  |
| CCS(=O)(=O)N1CCc2cc(C(=O)c3cc4cc(Cl)ccc4o3)ccc21 | inactive |  |
| Cc1cc(C(=O)CSc2nc3ccccc3c(=O)[nH]2)c(C)n1CC1CCCO1 (stereo unspecified) | inconclusive: 126 µM [inhibitor, single point] |  |
| O=C(N/N=C/c1cccc(Br)c1)c1ccc(Cn2cc(Br)cn2)o1 | inactive |  |
| CCOC(=O)c1scc(-c2ccc(C)cc2)c1S(=O)(=O)Nc1cccc(CC)c1 | inactive |  |
| COc1ccc(-n2c(SCC(=O)Nc3nnc(C)s3)nc3c([nH]c4ccccc43)c2=O)cc1 | inconclusive: 89.1 µM [inhibitor, partial curve, poor fit] |  |
| CCCCCCNC(=O)CNC(=S)N(Cc1cccs1)C1CCCCC1 | inconclusive: 39.8 µM [inhibitor, partial curve, poor fit] |  |
| COc1cccc2ccn(CC(=O)NCc3ccccc3)c12 | inactive |  |
| CCOCN(C(=O)Cn1c(CO)nc2ccccc21)c1c(C)cccc1CC | inconclusive: 63.1 µM [inhibitor, partial curve, poor fit] |  |
| COc1cccc(CNc2ncc(-c3ccc(Br)cc3)n2C)c1 | active: 8.91 µM |  |
| O=C(NC1CCSc2c(F)cccc21)c1cc2c(s1)CCCC2 (stereo unspecified) | inactive |  |
| S=c1sc(SCc2ccccc2)c(SCc2ccccc2)s1 | inconclusive: 28.2 µM [inhibitor, partial curve] |  |
| Cc1cc2nnc(SCC(=O)NCC(c3ccccc3)N(C)C)n2c2ccccc12 (stereo unspecified) | inconclusive: 0.199 µM [inhibitor, full curve, poor fit] |  |
| C=CCN(CC=C)C(=O)c1cc(-c2ccc(OC)cc2)nc2ccccc12 | inactive |  |
| CCCCCCCCCCCC1N=C(N)NC(CCCO)=C1C(=O)OC (stereo unspecified) | inconclusive: 50.1 µM [inhibitor, partial curve, poor fit] |  |
| CC(C)(C)NC(=S)NNC(=O)c1ccccc1Cl | inconclusive: 7.94 µM [inhibitor, full curve] |  |

A few values from the results shown.
NC(=O)CNC(=O)[C@@H]1CC2(CC(c3ccccc3)=NO2)CN1C(=O)c1ccc(Br)cc1 (stereo partly specified) – Potency: inactive
S=c1sc(SCc2ccccc2)c(SCc2ccccc2)s1 – Potency: inconclusive: 28.2 µM [inhibitor, partial curve]

(list continues)

| SMILES | Potency | activity change, negative = inhibition |
| --- | --- | --- |
| Cc1nc(N2CCC(C)CC2)c2c(C)c(C(=O)Nc3ccc(C)c(F)c3)sc2n1 | inactive |  |
| COc1ccc(CN2CCN(S(=O)(=O)c3ccc(NC(C)=O)cc3)CC2)cc1OC | inconclusive: 0.501 µM [inhibitor, full curve, poor fit] |  |
| CCOC(=O)C1(Cc2cccc(F)c2)CCN(Cc2cnn(CC)c2)CC1 | inactive |  |
| Cc1ccccc1CC1(CO)CCCN(C(=O)c2ccc(F)cc2)C1 (stereo unspecified) | inactive |  |
| O=C(N/N=C/c1cc(Br)ccc1O)c1ccccc1Cl | inconclusive: 10 µM [inhibitor, full curve] |  |
| COc1ccc2c3c([nH]c2c1)[C@@H](CO)N(C(=O)C1CC1)CC31CCN(Cc2nccs2)CC1 | inconclusive: 70.8 µM [inhibitor, partial curve, poor fit] |  |
| Nc1c(-c2nc(-c3ccccc3)cs2)c2ccccn2c1C(=O)c1ccc2c(c1)OCO2 | inconclusive: 126 µM [inhibitor, partial curve, poor fit] |  |
| COc1ccc(CNc2ncc(-c3cccc([N+](=O)[O-])c3)n2C)c(OC)c1OC | inconclusive: 0.891 µM [inhibitor, full curve, poor fit] |  |
| Cc1c(C(=O)Nc2nc3c(s2)CCCCC3)[nH]c2c1C(=O)CCC2 | inactive |  |
| CCC(=O)Nc1ccc(N2CCCCC2)c(C(=O)Nc2ccccc2C)c1 | inactive |  |
| CC1=C(C(=O)Nc2cc(C)ccc2C)C2(CCCCCC2)OC1=O | inconclusive: 100 µM [inhibitor, partial curve, poor fit] |  |
| Cc1cc(C)c(S(=O)(=O)N2CCN(Cc3nc4ccc(C)cc4o3)CC2)c(C)c1 | inconclusive: 35.5 µM [inhibitor, partial curve, poor fit] |  |
| CC1(C)C/C(=N\NC(=S)Nc2ccccc2F)c2cc(O)ccc2O1 | inconclusive: 22.4 µM [inhibitor, partial curve] |  |
| C/C=C/COC(=O)c1[nH]c2c(c1C)C(=O)CC(c1ccc(N(C)C)cc1)C2 (stereo unspecified) | inconclusive: 50.1 µM [inhibitor, partial curve, poor fit] |  |
| CNS(=O)(=O)c1ccc(Oc2ccc3ccc(=O)oc3c2)c([N+](=O)[O-])c1 | inconclusive: 39.8 µM [inhibitor, partial curve, poor fit] |  |
| COc1ccc(OC)c(S(=O)(=O)n2nc(C)c(S(=O)(=O)N(C)c3ccccc3)c2C)c1 | inconclusive: 7.08 µM [inhibitor, partial curve, poor fit] |  |
| CC(C)CCNc1nc(-c2ccc3[nH]c(=O)[nH]c3c2)cs1 | active: 44.7 µM |  |
| CCc1ccccc1Nc1cc(C(=O)NCCc2ccccc2)c2ccccc2n1 | inconclusive: 112 µM [inhibitor, partial curve, poor fit] |  |
| COc1ccc([C@H]2C[C@@H](O)[C@H](n3cc(COC(=O)c4ccccc4)nn3)CN2CC2CCCCC2)cc1 | inconclusive: 50.1 µM [inhibitor, partial curve, poor fit] |  |
| O=C(NCC(c1cccnc1)N1CCOCC1)C(=O)Nc1ccc(F)cc1 (stereo unspecified) | inactive |  |
| COc1ccc(OC)c(CCNc2nccn(-c3ccc(C)c(C)c3)c2=O)c1 | inactive |  |
| CCOC(=O)c1c(/N=C/c2cccc([N+](=O)[O-])c2O)sc2c1CCC2 | inconclusive: 44.7 µM [inhibitor, partial curve] |  |
